Source: ChEMBL document CHEMBL3988442, “University of Dundee, Small-Polar-MMV Screening Library” (2021).

Mtb glucose medium: 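Growth of Mycobacterium tuberculosis over 3 days (7H9 medium with glucose and tyloxapol); the read-out is not stated. Concentration: 50 µM. Direction is inferred from retests: higher values go with more growth inhibition. Size under these conditions: about 69,000 compounds, about 760 of them at 50% or above in at least one test.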
Mtb cholesterol medium: 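Phenotypic screen: M. tuberculosis growth, cholesterol and DPPC medium, 4 days; the read-out is not stated. Concentration: 50 µM. Direction is inferred from retests: higher values go with more growth inhibition. Of about 69,000 compounds tested this way, about 370 (0.54%) reached 50% or more in at least one test.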

Values are the deposited “Percent Effect”, in %.
The record does not define 0% and 100%; most values in the screen are far below 50% and negative numbers occur (in some assays of this library far below -100).
Compounds were drawn at random from those tested, without regard to their results.
Two or more numbers in one place are separate tests of the same structure; such repeats can differ widely.

| # | compound | Mtb glucose medium | Mtb cholesterol medium |
|---|---|---|---|
| 1 | `CSC(C)C(=O)NS(=O)(=O)CCc1ccccc1` (stereo not given) | -1.601% and 10.4% | -3.054% |
| 2 | `CCc1ccc(S(=O)(=O)N2CCCC(c3ncc[nH]3)C2)s1` (stereo not given) | 15.78% | 16.52% and 1.653% |
| 3 | `Cc1cc(N2CCCC(N(C)C)C2)n2nccc2n1` (stereo not given) | 5.604% and 7.433% | 5.465% |
| 4 | `Cl.Cl.c1ccc(COC[C@@H]2CCC[C@@]23CNCCO3)nc1` | -21.3% | -12.36% |
| 5 | `CCn1cnnc1C1CCN(C(=O)c2ccoc2C)CC1` | -9.034% | -28.22% |
| 6 | `O=C(CCCN1C(=O)CCC1=O)NCC1(c2ccccc2)CCC1` | -6.417% | -9.722% |
| 7 | `CN(CCN1CCOCC1)C(=O)CCCOCCc1ccccc1` | -58.39% | -24.5% |
| 8 | `CCCS(=O)(=O)N1CCCC(c2cccc(C(=O)O)c2)C1` (stereo not given) | -8.26% and -2.181% | -19.59% |
| 9 | `CO[C@@H]1CCN(C(=O)c2ccccn2)[C@H]1Cc1ccccc1.O=C(O)C(F)(F)F` | -13.4% | 11.42% |
| 10 | `CC(=O)N1CCN(C(=O)NCCCN(C)S(C)(=O)=O)CC1` | 13.04% | 3.929% |
| 11 | `CN(Cc1ccc(F)cc1)CC1(O)CCN(C(=O)c2ccsc2)C1` (stereo not given) | -7.553% | -7.628% |
| 12 | `c1cncc(-c2noc(CN3CCCCC3Cn3cccn3)n2)c1` (stereo not given) | -4.128% | -9.688% |
| 13 | `Cc1cc(-c2nn3c(C(C)C)nnc3s2)on1` | 25.57% | 7.048% |
| 14 | `Cc1cccc(-c2noc(CN3CCc4nn(C)c(=O)cc4C3)n2)c1` | 14.05% | 24.34% |
| 15 | `Cc1nccc(C(=O)N2CCCN(Cc3nccn3C(C)C)CC2)n1` | -8.648% | -8.804% |
| 16 | `COCCNC(=O)CCNc1cc(C)nc(-c2ccncc2)n1` | 28.96% | -11.62% |
| 17 | `CSCC(=O)N1CCOC(c2nc(C)n[nH]2)C1` (stereo not given) | -13.44% | -7.691% |
| 18 | `Cc1cc(F)ccc1N1CCCC(Nc2nccn3cnnc23)C1=O` (stereo not given) | 7.898% | -8.14% |
| 19 | `CCN1CCN(C(C)CNC(=O)Nc2nnc(C(C)C)s2)CC1` (stereo not given) | -11.5% | -2.058% |
| 20 | `O=C(Nc1nncs1)c1ccc(O)nc1` | -26.85% | -25.54% |
| 21 | `CS(=O)(=O)CCN1CCN(c2ccc(Cl)cn2)CC1` | 0.2835% and -8.49% | 3.389% |
| 22 | `O=C(c1ccncc1)N1CCC(c2nc(O)cc(-c3ccncc3)n2)C1` (stereo not given) | 10.45% | -8.405% |
| 23 | `CCN1CCC(CC(=O)N2CCc3sc(C(=O)N(C)C)cc3C2)CC1` | -40.43% | -32.4% |
| 24 | `O=C(O)C(F)(F)F.[H][C@@]12OCCN(S(=O)(=O)CCC)[C@@]1([H])CC[C@@H]2Oc1cccnc1` | 2.264% | 0.6238% |
| 25 | `O=C(CO)N1CCC(CCc2ccnc(Nc3cnccn3)c2)CC1` | 4.928% | 10.98% |
| 26 | `c1cncc(CN2CCn3cc(Cn4cccn4)nc3C2)c1` | -0.6614% | -20.57% |
| 27 | `CCn1c(=O)c2cc(S(N)(=O)=O)ccc2n(CC)c1=O` | -4.032% | -1.891% |
| 28 | `[H][C@@]12CN(Cc3cccc(Cl)c3)C[C@]1([H])C2CN` (stereo not given in full) | -11.82% | 0.3779% |
| 29 | `[H][C@@]12CCN(C(=O)c3cccs3)C[C@@]1([H])O[C@H](c1nnc(C3CC3)o1)C2` | 20.52% | 4.292% |
| 30 | `Cc1nn(C)c(C)c1C1CCCN1C(=O)c1ccc(NC2CC2)nc1` (stereo not given) | 7.785% | 4.243% |
| 31 | `Cc1nc(C)c(CC(=O)Nc2nc(C)c(C)s2)c(=O)[nH]1` | -0.002304% | -4.77% |
| 32 | `CNCC(=O)N1CCCC(c2ccnc(Nc3cnccn3)n2)C1` (stereo not given) | -0.01286% | -7.832% |
| 33 | `c1ncn(CC2CN(CCCOc3ccc4c(c3)OCO4)CCO2)n1` (stereo not given) | -5.748% | -20.24% |
| 34 | `Cc1cc(CN(C2CC2)C(C)C(C)C)no1` (stereo not given) | -12.83% and -1.309% | 11.7% |
| 35 | `COCCNC(=O)NC1(c2nc(C)no2)CCCCC1` | 20.2% and 1.275% | 2.398% |
| 36 | `COCCN(Cc1ccccn1)Cc1sccc1C` | -9.941% | 10.83% |
| 37 | `O=C(CC1C=CCC1)N1CCc2ncnc(NCc3ccon3)c2CC1` (stereo not given) | -0.5519% | -12.4% |
| 38 | `Cc1n[nH]cc1CNc1ccc2c(c1)N(C(=O)OC(C)(C)C)CCC2` | -16.38% | -13.52% |
| 39 | `Cc1nn(C)c2nc(N3CCCCC3c3ccc(F)cc3)sc12` (stereo not given) | -23.11% and 11.13% | 11.1% |
| 40 | `O=C1CC2(CCCCN2C(=O)c2cccs2)CN1CC1CC1` (stereo not given) | 16.08% | -3.667% and -7.971% |
| 41 | `N#Cc1ncn(CCS(=O)(=O)c2ccccc2)n1` | -0.1609% and -0.9284% | -0.6552% |
| 42 | `O=C(O)C(F)(F)F.O=C(O)C(F)(F)F.O=C(O)C(F)(F)F.[H][C@]12C[C@@H](Cn3cccn3)N(C(C)C)[C@@]1([H])CCN(Cc1ccoc1)C2` | 12.98% and 6.59% | -1.599% |
| 43 | `O=C(CNc1ccc(OC2CCOC2)cc1)NCc1cccs1` (stereo not given) | -1.329% | -6.141% |
| 44 | `Cc1cc(C(=O)N2CCCC2)ccc1NCCOCC(F)(F)F` | -20.36% | -3.373% |
| 45 | `CNC(=O)C1CC2(CCN(C(=O)c3csnn3)CC2)c2ccccc21` (stereo not given) | 0.4375% and 17.94% | -1.57% |
| 46 | `CCn1nc(C)cc1C(=O)OCC1CC(=O)N(Cc2ccccc2)C1` (stereo not given) | 18.14% | 4.694% |
| 47 | `Cc1nc(CN2CCC3(CCN(Cc4cnn(C)c4)C3)C2=O)cs1` (stereo not given) | 13.93% | -14.1% |
| 48 | `CNc1cc(CCNS(=O)(=O)c2ccccc2)nc(-c2ccccn2)n1` | 33.01% | 14.63% and 9.003% |
| 49 | `Cc1nc(C)n(CC2CCCN2Cc2ncc(-c3ccccc3)o2)n1` (stereo not given) | 24.53% | -5.588% |
| 50 | `O=C(O)C(F)(F)F.O=C(O)C(F)(F)F.[H][C@]12CCC[C@@H](CNC(C)(C)C)[C@@]1([H])CN(Cc1csnn1)C2` | -6% and -4.696% | 0.03045% and -9.337% |
| 51 | `CCCC1COCCN1Cc1ccc(NC(C)=O)cc1` (stereo not given) | -1.342% | -5.103% |
| 52 | `NCc1cc(NCC(c2ccccn2)N2CCOCC2)ncn1` (stereo not given) | -33.51% | -3.334% |
| 53 | `COCCSc1ccc(-n2ccnc2)nn1` | -67.33% | -7.353% |
| 54 | `O=S(=O)(Cc1nc(C2CC2)no1)c1cc(F)ccc1F` | -26.81% and 5.398% | -7.403% |
| 55 | `CCC(C)NC(=O)c1cccc(CNC(=O)CC(F)(F)F)c1` (stereo not given) | -38.28% | -24.5% and -4.447% |
| 56 | `COCCC1COC2(CCN(C(=O)c3ccccc3)CC2)C1` (stereo not given) | -22.01% | -5.98% and -6.309% |
| 57 | `CC(CCc1ccccc1)NC(=O)CNCCCN(C)C.O=C(O)C(=O)O` (stereo not given) | 7.534% | 1.104% |
| 58 | `CCn1cc(CN2CCCC2c2nc(-c3ccccc3)no2)cc1C#N` (stereo not given) | 18.45% and 6.557% | 25.98% |
| 59 | `[H][C@]12CCN(Cc3ccc(C)o3)C[C@@]1([H])OCCN(S(C)(=O)=O)C2` | -5.399% and -13.03% | -10.73% |
| 60 | `O=C(Nc1nc(-c2ccccc2)ns1)N1CCC(F)CC1` | -12.09% and 5.752% | -0.2147% and -19.67% |
| 61 | `O=C(NCC1CC1)c1cc(Br)cnc1N1CCCCC1` | 0.1183% | -3.801% |
| 62 | `Cn1cccc1C(=O)N1CCC(c2nnc(Cn3ccnc3)n2C)CC1` | 11.22% | 14.59% |
| 63 | `O=C1CC2(CCN(CCCO)CC2)CN1Cc1ccc(F)c(F)c1` | 2.676% | -5.36% |
| 64 | `Cc1cc(N(C)CCn2ccnc2C)n2nccc2n1` | -9.032% | -9.041% |
| 65 | `CCOc1ccc(-c2nc(C(=O)NCC3CCOC3)cs2)cc1` (stereo not given) | 14.87% | -20.73% |
| 66 | `CCCS(=O)(=O)c1ccc(N2CCN(Cc3ccccc3)CC2)nn1` | -10.98% and -2.928% | -17.99% |
| 67 | `O=C(c1scc2c1OCCO2)N1CCOC(CCc2ccccc2)C1` (stereo not given) | 20.66% | -9.678% |
| 68 | `Cc1nc(C)c(CN2CCOC[C@H](Oc3ccc(S(C)(=O)=O)cc3)C2)s1` | 6.587% and -6.857% | 15.8% |
| 69 | `COc1cc(N2CCC3(CCN(Cc4cccnc4)C3=O)C2)ncn1` (stereo not given) | -15.28% | -12.02% |
| 70 | `CCc1n[nH]c(C2CN(CCc3cccs3)CCO2)n1` (stereo not given) | -27.47% | -29.29% |
| 71 | `CC1(C)CC1(C(=O)N1CC(c2cccnc2)C1)c1ccccc1F` (stereo not given) | 9.071% and -3.23% | 12.44% |
| 72 | `CCC(=O)Nc1cccc(OCC(=O)N(C)Cc2ccon2)c1` | -11.6% | 0.378% |
| 73 | `Cc1noc(C)c1-c1ccc(C2CCCN2C(=O)c2ccncn2)nc1` (stereo not given) | 23.33% | -17.57% |

Repeated from the top, 8 entries:

{"compound": "CSC(C)C(=O)NS(=O)(=O)CCc1ccccc1", "stereo": "stereo not given", "Mtb glucose medium": "-1.601 and 10.4", "Mtb cholesterol medium": -3.054}
{"compound": "CCc1ccc(S(=O)(=O)N2CCCC(c3ncc[nH]3)C2)s1", "stereo": "stereo not given", "Mtb glucose medium": 15.78, "Mtb cholesterol medium": "16.52 and 1.653"}
{"compound": "Cc1cc(N2CCCC(N(C)C)C2)n2nccc2n1", "stereo": "stereo not given", "Mtb glucose medium": "5.604 and 7.433", "Mtb cholesterol medium": 5.465}
{"compound": "Cl.Cl.c1ccc(COC[C@@H]2CCC[C@@]23CNCCO3)nc1", "Mtb glucose medium": -21.3, "Mtb cholesterol medium": -12.36}
{"compound": "CCn1cnnc1C1CCN(C(=O)c2ccoc2C)CC1", "Mtb glucose medium": -9.034, "Mtb cholesterol medium": -28.22}
{"compound": "O=C(CCCN1C(=O)CCC1=O)NCC1(c2ccccc2)CCC1", "Mtb glucose medium": -6.417, "Mtb cholesterol medium": -9.722}
{"compound": "CN(CCN1CCOCC1)C(=O)CCCOCCc1ccccc1", "Mtb glucose medium": -58.39, "Mtb cholesterol medium": -24.5}
{"compound": "CCCS(=O)(=O)N1CCCC(c2cccc(C(=O)O)c2)C1", "stereo": "stereo not given", "Mtb glucose medium": "-8.26 and -2.181", "Mtb cholesterol medium": -19.59}